Values from PubChem BioAssay AID652243 (Drosophila RNAi Screening Center, 2013)
Aim: 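Knock-downs that decrease or increase androgen receptor reporter signal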 (primary screen). System: Drosophila S2R+ cells. Reagents: long dsRNA against Drosophila genes. Timing: 72 h (48 h, then 24 h hormone). Treatment: synthetic androgen R1881 at 10 nM for 24 h. Measured: 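Per-well raw luminescence of the androgen-driven firefly reporter and of the Renilla control, two replicates each, without normalisation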. Scale: firefly reporter light: higher = more light from androgen-responsive reporter; Renilla control light: higher = more constitutive control signal (cell number, transfection). Hit rule: 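Hit when the log firefly-to-Renilla ratio dropped or increased by a fixed fold versus the mean of GFP or LacZ controls across duplicate plates; lowering cut given as 1.5 and as 3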. Meaning of the calls: active = hit: reporter lowered or raised; inactive = no hit.
In all, the deposit lists about 24,000 reagents; below is a random part of those with a known target gene and a result. Over the whole deposit, 246 (1%) are marked active. 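Plates not normalised; calls are printed but the firefly/Renilla ratio behind them is not deposited; fold cut for lowering reported inconsistently.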 Raw values vary from plate to plate and are shown uncorrected. Reagents against one gene are numbered here. Not given: the amount of reagent.

gene knocked down,reagent,"firefly reporter light, replicate 1","firefly reporter light, replicate 2","Renilla control light, replicate 1","Renilla control light, replicate 2",Outcome
Ndae1 (Na[+]-driven anion exchanger 1),1,1.85e5,1.05e5,1.53e5,1.58e5,inactive
Ndae1 (Na[+]-driven anion exchanger 1),2,8.53e5,1.42e6,1.80e6,2.88e6,inactive
XRCC1,1,57549,69300,6.07e5,8.27e5,inactive
XRCC1,2,4.38e5,4.87e5,1.44e6,1.75e6,inactive
ND-51L2 (NADH dehydrogenase (ubiquinone) 51 kDa subunit-like 2),1,45959,61239,1.10e6,1.10e6,inactive
Lsp1beta (Larval serum protein 1 beta),1,7.69e5,8.68e5,1.79e6,1.48e6,inactive
Lsp1beta (Larval serum protein 1 beta),2,3.30e5,4.67e5,3.47e5,3.82e5,inactive
lncRNA:CR41601 (long non-coding RNA:CR41601),1,1.30e6,1.23e6,2.54e6,2.24e6,inactive
CG13319,1,5.26e5,4.68e5,2.69e6,2.34e6,inactive
Tsp (Thrombospondin),1,9.57e5,1.41e6,2.31e6,2.52e6,inactive
Tsp (Thrombospondin),2,1.90e5,2.14e5,2.01e6,2.20e6,inactive
Nepl21 (Neprilysin-like 21),1,1.73e5,1.08e5,7.32e5,4.35e5,inactive
CG3939,1,3.01e5,4.42e5,4.37e6,3.18e6,inactive
Elal (Elastin-like),1,1.44e5,1.21e5,7.16e5,6.08e5,inactive
alpha-Man-Ia (alpha-Mannosidase class I a),1,80820,1.64e5,2.35e5,4.92e5,active
alpha-Man-Ia (alpha-Mannosidase class I a),2,2.77e5,3.20e5,3.34e6,2.79e6,inactive
alpha-Man-Ia (alpha-Mannosidase class I a),3,1.36e5,1.27e5,2.34e6,2.53e6,inactive
alpha-Man-Ia (alpha-Mannosidase class I a),4,1.50e5,1.52e5,1.75e6,1.55e6,inactive
alpha-Man-Ia (alpha-Mannosidase class I a),5,7.31e5,1.01e6,1.42e6,2.43e6,inactive
CG5800,1,5.71e5,6.39e5,2.92e6,3.05e6,inactive
CG5800,2,5.53e5,4.07e5,2.19e6,1.31e6,inactive
CG5968,1,1.30e5,1.15e5,1.73e6,1.67e6,inactive
CG10038,1,67989,62891,5.69e5,6.24e5,inactive
drd (drop dead),1,6.57e5,5.53e5,3.20e6,3.32e6,inactive
drd (drop dead),2,6.97e5,6.71e5,2.60e6,2.16e6,inactive
drd (drop dead),3,82040,90665,1.11e5,1.50e5,inactive
CG12391,1,7.60e5,8.65e5,1.73e6,1.67e6,inactive
Ids (Iduronate 2-sulfatase),1,1.07e5,79236,8.49e5,1.10e6,inactive
Aladin,1,1.32e5,97757,8.44e5,8.25e5,inactive
Aladin,2,8.47e5,1.12e6,1.71e6,1.71e6,inactive
CG13114,1,1.35e5,93870,1.60e6,9.13e5,inactive
CG9993,1,2.42e5,1.61e5,1.44e6,1.25e6,inactive
GstD1 (Glutathione S transferase D1),1,61624,73998,1.78e6,1.74e6,inactive
GstD1 (Glutathione S transferase D1),2,2.07e5,2.50e5,4.72e5,6.81e5,inactive
Pus7 (Pseudouridine synthase 7),1,1.40e5,1.70e5,1.84e6,1.70e6,inactive
Pus7 (Pseudouridine synthase 7),2,2.08e5,2.62e5,4.15e5,6.30e5,inactive
scf (supercoiling factor),1,71100,89712,1.16e6,9.91e5,inactive
kra (krasavietz),1,43197,68221,3.64e5,3.05e5,inactive
AstA-R2 (Allatostatin A receptor 2),1,1.48e5,1.81e5,2.37e6,3.05e6,inactive
AstA-R2 (Allatostatin A receptor 2),2,6.21e5,7.29e5,1.03e6,8.10e5,inactive
dnk (deoxyribonucleoside kinase),1,1.76e5,1.70e5,2.83e6,2.78e6,inactive
dnk (deoxyribonucleoside kinase),2,4.76e5,7.02e5,1.19e6,1.12e6,inactive
phol (pleiohomeotic like),1,1.05e6,4.32e5,1.20e6,5.86e5,inactive
phol (pleiohomeotic like),2,7.15e5,7.13e5,4.71e5,5.61e5,inactive
Elp1 (Elongator complex protein 1),1,46999,40668,3.24e5,4.08e5,inactive
CG4424,1,59153,74306,6.75e5,5.75e5,inactive
CG6652,1,32693,51084,5.06e5,4.67e5,inactive
CG6652,2,6.10e5,5.45e5,1.55e6,1.44e6,inactive
so (sine oculis),1,7.67e5,8.70e5,6.21e5,7.31e5,inactive
TotC (Turandot C),1,1.05e5,1.07e5,1.74e5,1.47e5,inactive
Kdm2 (Lysine demethylase 2),1,62533,1.08e5,3.41e5,6.21e5,inactive
TpnC4 (Troponin C isoform 4),1,2.59e5,3.15e5,1.70e6,1.18e6,inactive
CCT3 (Chaperonin containing TCP1 subunit 3),1,47132,20346,3.81e5,2.85e5,inactive
Unc-115a (Uncoordinated 115a),1,1.20e5,1.22e5,3.08e5,2.24e5,inactive
Unc-115a (Uncoordinated 115a),2,7.14e5,1.32e6,8.18e5,9.40e5,inactive
CG14650,1,5.04e5,6.50e5,1.97e6,1.81e6,inactive
CG14650,2,1.35e6,1.16e6,1.08e6,8.01e5,inactive
CG3408,1,1.81e5,1.51e5,1.64e6,1.04e6,inactive

Laid out differently: entries from further up.
{"gene knocked down":"Elp1 (Elongator complex protein 1)","reagent":1,"firefly reporter light, replicate 1":46999,"firefly reporter light, replicate 2":40668,"Renilla control light, replicate 1":3.24e5,"Renilla control light, replicate 2":4.08e5,"Outcome":"inactive"}
{"gene knocked down":"CG4424","reagent":1,"firefly reporter light, replicate 1":59153,"firefly reporter light, replicate 2":74306,"Renilla control light, replicate 1":6.75e5,"Renilla control light, replicate 2":5.75e5,"Outcome":"inactive"}
{"gene knocked down":"CG6652","reagent":1,"firefly reporter light, replicate 1":32693,"firefly reporter light, replicate 2":51084,"Renilla control light, replicate 1":5.06e5,"Renilla control light, replicate 2":4.67e5,"Outcome":"inactive"}
{"gene knocked down":"CG6652","reagent":2,"firefly reporter light, replicate 1":6.10e5,"firefly reporter light, replicate 2":5.45e5,"Renilla control light, replicate 1":1.55e6,"Renilla control light, replicate 2":1.44e6,"Outcome":"inactive"}
{"gene knocked down":"so (sine oculis)","reagent":1,"firefly reporter light, replicate 1":7.67e5,"firefly reporter light, replicate 2":8.70e5,"Renilla control light, replicate 1":6.21e5,"Renilla control light, replicate 2":7.31e5,"Outcome":"inactive"}
{"gene knocked down":"TotC (Turandot C)","reagent":1,"firefly reporter light, replicate 1":1.05e5,"firefly reporter light, replicate 2":1.07e5,"Renilla control light, replicate 1":1.74e5,"Renilla control light, replicate 2":1.47e5,"Outcome":"inactive"}
{"gene knocked down":"Kdm2 (Lysine demethylase 2)","reagent":1,"firefly reporter light, replicate 1":62533,"firefly reporter light, replicate 2":1.08e5,"Renilla control light, replicate 1":3.41e5,"Renilla control light, replicate 2":6.21e5,"Outcome":"inactive"}
